Data reported in PubChem BioAssay AID493014 (National Center for Advancing Translational Sciences (NCATS), 2011).
The list shows a part of the results. These are further read-outs of the screen, such as a control signal, another cell line or another target. No call is given for them. Compounds called inactive in the main read-out are mostly missing here. Potencies come from curve fits of mixed quality, noted in brackets.

Test: qHTS Assay to Find Inhibitors of Chronic Active B-Cell Receptor Signaling
Details: ABC-DLBCL IkBa-CBG/CBR reporter, luminescence ratio (green luciferase fused to IkBa over red control in TMD8 lymphoma cells), 4 h
Outline: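 TMD8 human ABC-DLBCL cells with doxycycline-inducible IκBα–green luciferase fusion and unfused red luciferase, in 0.5% FBS medium; compounds up to 46 uM, 4 h at 37C. Green/red luminescence ratio, filter-overlap corrected, fitted to concentration-response curves.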

[1] = measured here: CBR red luminescence, cell number
[2] = measured here: IkBa-CBG green luminescence

Row | SMILES | AC50 [1] | AC50 [2]
1 | Cc1cc(O)c(C(c2ccccc2)N2CCC(C)CC2)c(=O)n1Cc1ccco1 (configuration not stated) | 22.4 µM [falling, partial curve, poor fit] | 14.1 µM [rising, single point]
2 | CC(OC(=O)c1ccc(S(=O)(=O)NCc2ccco2)cc1)C(=O)Nc1ccccc1 (configuration not stated) | 29.1 µM [rising, single point] | 
3 | COc1cccc2c(=O)n(CC(=O)N3CCN(c4ccccc4)CC3)ccc12 | 29.1 µM [rising, single point] | 
4 | Cc1c(N=C2N=C(NC(=O)c3cccs3)c3ccccc32)c(=O)n(-c2ccccc2)n1C | 1.12 µM [rising, full curve, poor fit] | 
5 | Cn1cc2ccc(N)cc2n1 |  | 14.1 µM [rising, partial curve, poor fit]
6 | COC(=O)[C@H](CC(C)C)NC(=O)NCCC1=CCCCC1 | 8.91 µM [rising, partial curve, poor fit] | 
7 | O=c1oc2ccccc2c(NC2CCCCC2)c1NS(=O)(=O)c1ccc(F)cc1 | 7.94 µM [falling, partial curve, poor fit] | 
8 | Oc1cccc(/C=N/Nc2ccc(Cl)nn2)c1 | 14.1 µM [falling, partial curve] | 
9 | Nc1nc(NC(=O)c2ccccc2)nn1-c1ccccc1 | 2.31 µM [falling, full curve] | 
10 | O=C(O)c1ccc(CSc2nnc(SCc3ccccc3)s2)cc1 | 20 µM [rising, single point] | 
11 | CCCCCCCCCCCC(=O)NC(C(=O)O)C(O)c1ccccc1 (configuration not stated) | 35.5 µM [falling, single point] | 
12 | COc1cc(OC)c2c(-c3cccc(-c4ccc(NC(C)=O)cc4)c3)cc(=O)oc2c1 | 1.84 µM [rising, partial curve, poor fit] | 2.91 µM [falling, full curve]
13 | Cc1ccc(CNC(=O)CNC(=O)c2ccco2)cc1 | 35.5 µM [rising, single point] | 
14 | CCOC(=O)C1CCN(C(=O)CSc2ccc(Br)cc2)CC1 | 11.2 µM [falling, partial curve] | 
15 | CC(C)CCOc1ccc(C(=O)N2CCN(c3ncccn3)CC2)cc1 | 0.501 µM [rising, full curve, poor fit] | 
16 | COc1cccc(Nc2nc(NCC3CCCO3)c3ccccc3n2)c1 (configuration not stated) | 18.4 µM [falling, partial curve, poor fit] | 
17 | CCOC(=O)c1[nH]c2c(c1-c1ccccc1)C(=O)CC(c1ccccc1)C2 (configuration not stated) | 0.651 µM [rising, full curve] | 
18 | CCCCC(=O)c1ccc(O)cc1 | 13 µM [rising, partial curve, poor fit] | 
19 | CC(=O)NC(Cc1ccc(C(C)C)cc1)C(=O)NC1CCN(C(=O)c2cccc(C)c2)CC1 (configuration not stated) | 0.891 µM [falling, full curve, poor fit] | 
20 | CCOc1cc(N2CCOCC2)c(OCC)cc1NC(=O)c1c(-c2ccccc2)noc1C | 4.11 µM [rising, full curve] | 
21 | O=C(NCCNc1ccc([N+](=O)[O-])cc1)c1ccccc1Br | 35.5 µM [falling, single point] | 

Row | SMILES | AC50 [1] | AC50 [2]
22 | O=C1/C(=C/c2ccc(F)cc2)SC(=S)N1NS(=O)(=O)c1ccccc1 | 22.4 µM [falling, single point] | 
23 | COc1ccccc1NC(=O)C1=C(C)NC(SCC(=O)c2ccccc2)=C(C#N)C1c1ccco1 (configuration not stated) | 1.03 µM [falling, full curve] | 
24 | COc1cccc(N2CCN(C(=O)c3ccc(CS(=O)c4ccccc4Cl)o3)CC2)c1 (configuration not stated) | 12.6 µM [rising, partial curve] | 5.01 µM [falling, full curve]
25 | CCC(c1nnnn1Cc1ccco1)N(CCc1ccccc1)Cc1cc2cccc(C)c2[nH]c1=O (configuration not stated) | 25.9 µM [falling, single point] | 
26 | COc1ccccc1N1CCN(S(=O)(=O)c2ccccc2)CC1 | 18.4 µM [rising, partial curve, poor fit] | 18.4 µM [falling, single point]
27 | CCOc1ccc(NC(=O)c2ccc(NC(=O)c3ccc(CN4CCOCC4)cc3)cc2)cc1 | 2.51 µM [falling, partial curve, poor fit] | 
28 | CCCCC(=O)NC(Nc1cc(C)ccn1)(C(=O)OCC)C(F)(F)F (configuration not stated) | 6.31 µM [rising, partial curve, poor fit] | 
29 | N=c1n(CCN2CCCCC2)c2ccccc2n1CC(=O)c1cccc([N+](=O)[O-])c1 | 11.2 µM [rising, partial curve] | 
30 | c1cncc(-c2nc3ccccc3[nH]2)c1 |  | 35.5 µM [rising, partial curve, poor fit]
31 | Nc1c2c(nc3ccccc13)CCCC2=O | 14.1 µM [falling, partial curve, poor fit] | 
32 | COc1cc2sc(-c3ccccc3OC)c(-c3ccc(OCCN4CCOCC4)cc3)c2cc1OC |  | 14.6 µM [falling, partial curve]
33 | Cc1nc(CSc2nnc(N)s2)cs1 | 17.8 µM [rising, single point] | 
34 | CCOC(=O)c1ccc(NC(=O)C(CC)CC)cc1 | 6.31 µM [rising, single point] | 
35 | CC(=O)COc1ccc2c3c(c(=O)oc2c1)CCCC3 | 7.08 µM [rising, full curve, poor fit] | 
36 | CCCCCOC(=O)c1cc(=O)[nH]c2ccccc12 | 0.0891 µM [rising, full curve, poor fit] | 
37 | Cn1cc(CN2CCC(n3nccc3NC(=O)c3ccccc3Cl)CC2)c2ccccc21 | 12.6 µM [falling, single point] | 
38 | N#CC1(C#N)[C@@H](C(=O)C23CC4CC(CC(C4)C2)C3)C12CCOCC2 | 32.6 µM [rising, partial curve, poor fit] | 
39 | COC(=O)C1=C(C(=O)OC)SC2(S1)C(C(=O)OC)=C(C(=O)OC)SC1=C2c2cccc(C)c2NC1(C)C | 2.59 µM [rising, full curve, poor fit] | 
40 | Clc1nc(-c2ccccn2)nc2scc(-c3ccccc3)c12 | 20.6 µM [falling, partial curve, poor fit] | 
41 | Oc1ccccc1-c1nnc(COc2ccc(Cl)cc2Cl)o1 | 16.4 µM [falling, single point] | 
42 | CC1CCCC(C)N1C(=O)Nc1cccc(Cl)c1 (configuration not stated) | 4.61 µM [rising, single point] | 

As entered above:
Value for `CC(C)CCOc1ccc(C(=O)N2CCN(c3ncccn3)CC2)cc1` under AC50 [1]: 0.501 µM [rising, full curve, poor fit]
Value for `Clc1nc(-c2ccccn2)nc2scc(-c3ccccc3)c12` under AC50 [1]: 20.6 µM [falling, partial curve, poor fit]
Value for `N=c1n(CCN2CCCCC2)c2ccccc2n1CC(=O)c1cccc([N+](=O)[O-])c1` under AC50 [1]: 11.2 µM [rising, partial curve]
Value for `COc1cccc2c(=O)n(CC(=O)N3CCN(c4ccccc4)CC3)ccc12` under AC50 [1]: 29.1 µM [rising, single point]
Value for `Nc1c2c(nc3ccccc13)CCCC2=O` under AC50 [1]: 14.1 µM [falling, partial curve, poor fit]

(more compounds)

Row | SMILES | AC50 [1] | AC50 [2]
43 | CCOc1ccc(Nc2nnc(SCc3nc4ccccc4c(=O)[nH]3)s2)cc1 | 0.178 µM [rising, full curve, poor fit] | 
44 | CCOc1ccccc1NC(=O)CN(C)S(=O)(=O)c1ccc2[nH]c(=O)oc2c1 | 0.794 µM [rising, full curve, poor fit] | 
45 | COc1cccc(C(=O)NCCSCc2ccccc2Cl)c1 | 4.47 µM [falling, partial curve, poor fit] | 
46 | CN(C)/C=N/C(=S)Nc1ccccc1F | 0.282 µM [falling, full curve] | 
47 | O=C(NCc1cccs1)C1CCC(CNS(=O)(=O)c2ccc(Br)s2)CC1 (configuration not stated) | 16.4 µM [rising, single point] | 
48 | c1ccc(-c2ccccc2-c2nc(-c3ccncc3)no2)cc1 | 6.51 µM [rising, partial curve, poor fit] | 
49 | O=c1c2ccccc2nc(SCCN2CCCCC2)n1CCc1ccccc1 | 22.4 µM [falling, single point] | 
50 | COc1ccccc1NC(=O)N1CCOCC1 | 11.2 µM [falling, partial curve] | 
51 | Cc1nc2c3cc(F)ccc3n(Cc3ccccc3)c2s1 | 23.1 µM [rising, partial curve] | 20.6 µM [falling, single point]
52 | CCCCCC(=O)N/N=C(\C)c1ccccn1 | 4.11 µM [rising, full curve, poor fit] | 
53 | O=C(NN1C(=O)c2ccccc2NC1c1ccccc1OCc1ccccc1)c1ccncc1 (configuration not stated) | 0.731 µM [rising, partial curve, poor fit] | 
54 | COc1cc(C(=O)NCCc2ccc3c(c2)OCCO3)ccc1OCC(=O)N1CCOCC1 | 35.5 µM [falling, partial curve, poor fit] | 
55 | CC(=O)N1CCc2c(sc(NC(=O)c3ccc4c(c3)OCCO4)c2C#N)C1 | 1.64 µM [rising, full curve, poor fit] | 
56 | CC(=O)N/C(=C\c1ccccc1)C(=O)OCC(=O)Nc1cc(S(=O)(=O)N(C)C)ccc1Cl | 7.31 µM [rising, partial curve, poor fit] | 
57 | COc1cc2nc(CN3CCN(S(=O)(=O)c4ccccc4C(F)(F)F)CC3)[nH]c(=O)c2cc1OC | 1.64 µM [rising, partial curve, poor fit] | 
58 | O=C(Cc1ccccc1)NC(=S)Nc1ccc2oc(-c3ccccc3F)nc2c1 | 0.794 µM [rising, full curve, poor fit] | 
59 | CCOC(=O)C1=NNC(C(=O)c2ccc(C)cc2)C1c1ccc(OC)cc1 (configuration not stated) | 2.59 µM [falling, full curve, poor fit] | 
60 | O=C(O)COc1ccccc1/C=N/NC(=O)CSc1nnc(-c2ccc(Cl)cc2)n1C1CCCCC1 | 12.6 µM [falling, partial curve] | 
61 | O=C(N/N=C/c1ccc([N+](=O)[O-])o1)c1cc2c(ccc3ccccc32)o1 | 8.91 µM [falling, partial curve, poor fit] | 
62 | CCCCOc1ccc(OC(=O)c2sc3ncn(Cc4cccc(F)c4)c(=O)c3c2C)cc1 | 11.2 µM [rising, partial curve] | 
